Data: patent EP4483904A1, “POLYOXOMETALATES AS MEMBRANE CARRIERS” (Universität Wien, priority 2023, dated 2025)

How the values were obtained:
[1] = test system: polyArg; experiment: Isothermal titration calorimetry, POM into polyArg; assay type: binding; conditions: 10 mM Mes, pH 5.5, 298.15 K
Protocol: (§1) All experiments were performed with a VP-ITC MicroCalorimeter from MicroCal, Int,. at atmospheric pressure and 298.15 K. Solutions were degassed and thermostatic prior the titration experiments in a ThermoVac accessory. A constant volume of POM ([PVW11]^4- or [SiMoW11]^4-) (10 µL per injection) was injected into the oligopeptide solution (heptaArg, protamine, polyArg or heptaLys) in 10 mM Mes, pH 5.5 to determine the apparent binding affinity of [PVW11]^4- and [SiMoW11]^4- with the oligopeptides. Dilution heats were determined by titration of the POM into buffer and subtracted from the reaction heat. The neat reaction heat was fitted with Origin 7.0 software by using the "one-set-of-sites" model to obtain the complex stability constant (Ka) and molar reaction enthalpy (ΔH°). The free energy (ΔG°) and entropy changes (ΔS°) were obtained according to the relation: ΔG° = - R TInKa = ΔH°-TΔS°.

[2] = test system: protamine; experiment: Isothermal titration calorimetry, POM into protamine; assay type: binding; conditions: 10 mM Mes, pH 5.5, 298.15 K
Protocol: as §1

[3] = test system: heptaArg; experiment: Isothermal titration calorimetry, POM into heptaArg; assay type: binding; conditions: 10 mM Mes, pH 5.5, 298.15 K
Protocol: as §1

[4] = Transport experiments in CF-loaded zwitterionic EYPC vesicles (CF fluorescence, Hill analysis); assay type: biochemical; conditions: EYPC⊃CF liposomes
Protocol: The dry film was rehydrated with 1 mL buffer (50 mM CF, 10 mM Hepes, pH 7.4 or 50 mM CF, 10 mM Tris, pH 7.4) for 30 min at room temperature, subjected to freeze-thaw cycles (7 times) and extrusions (15 times) through a polycarbonate membrane (pore size 100 nm). Extravesicular components were removed by size exclusion chromatography (NAP-25 column Sephadex G-25 DNA grade) with 10 mM Hepes, 107 mM NaCl, pH 7.4 or 10 mM Hepes, 107 mM NaCl, pH 7.4. Phospholipid concentration was calculated by the Stewart assay. […]
Vesicles stock solutions (5-10 µL) were diluted with the corresponding buffer in a disposable plastic cuvette and gently stirred (total volume 2000 µL, final lipid concentration 13 µM). […] Fluorescence intensities were normalized to fractional emission as: I(t) = (It −I0)/(I∞ −I0) [formula]
Where I0 = It before POM addition and I0 = I∞ after lysis. […]
In the transport measurements, where different carriers (POMs) are tested with the same cargo, the activator efficiency (E) is determined by their capacity to transport the impermeable cargo to the intravesicular region and is characterized by Ymax, its maximal activity, and EC50, the effective activator concentration. […]

Substance	PolyArg n [1]	Protamine n [2]	HeptaArg n [3]	vesicle lysis at higher POM concentration (DLS, Fig. 11) [4]
K4[α-Si^IVMo^VIW^VI11O40]·24H2O [[SiMoW11]^4-]	6.1	3.2	1.10	–
Na3[α-P^VW^VI12O40]·nH2O [[PW12]^3-]	–	–	–	lyse the vesicles
K4[α-P^VV^VW^VI11O40]·4H2O [[PVW11]^4-]	6.7	3.1	0.90	–
K4[α-Si^IVW^VI12O40]·14H2O [[SiW12]^4-]	–	–	–	lyse the vesicles
